Measurements as given in paper PMC3879359.
Where two headings read alike, the source gives them in different places. No constants are given. Whether binding was seen depends on the method and setting. In cells and extracts the contact can be indirect. A yes stands for co-enrichment or nearness to the bait. Other partners may have been found. For some of these results: No binding means not detected with the bait. For some of these results: Where a sequence is shown, tags or fusion partners need not be part of it.

Protein sequences, listed by entry. Tags and fused reporters are not part of them.
UniProt S8EZL1: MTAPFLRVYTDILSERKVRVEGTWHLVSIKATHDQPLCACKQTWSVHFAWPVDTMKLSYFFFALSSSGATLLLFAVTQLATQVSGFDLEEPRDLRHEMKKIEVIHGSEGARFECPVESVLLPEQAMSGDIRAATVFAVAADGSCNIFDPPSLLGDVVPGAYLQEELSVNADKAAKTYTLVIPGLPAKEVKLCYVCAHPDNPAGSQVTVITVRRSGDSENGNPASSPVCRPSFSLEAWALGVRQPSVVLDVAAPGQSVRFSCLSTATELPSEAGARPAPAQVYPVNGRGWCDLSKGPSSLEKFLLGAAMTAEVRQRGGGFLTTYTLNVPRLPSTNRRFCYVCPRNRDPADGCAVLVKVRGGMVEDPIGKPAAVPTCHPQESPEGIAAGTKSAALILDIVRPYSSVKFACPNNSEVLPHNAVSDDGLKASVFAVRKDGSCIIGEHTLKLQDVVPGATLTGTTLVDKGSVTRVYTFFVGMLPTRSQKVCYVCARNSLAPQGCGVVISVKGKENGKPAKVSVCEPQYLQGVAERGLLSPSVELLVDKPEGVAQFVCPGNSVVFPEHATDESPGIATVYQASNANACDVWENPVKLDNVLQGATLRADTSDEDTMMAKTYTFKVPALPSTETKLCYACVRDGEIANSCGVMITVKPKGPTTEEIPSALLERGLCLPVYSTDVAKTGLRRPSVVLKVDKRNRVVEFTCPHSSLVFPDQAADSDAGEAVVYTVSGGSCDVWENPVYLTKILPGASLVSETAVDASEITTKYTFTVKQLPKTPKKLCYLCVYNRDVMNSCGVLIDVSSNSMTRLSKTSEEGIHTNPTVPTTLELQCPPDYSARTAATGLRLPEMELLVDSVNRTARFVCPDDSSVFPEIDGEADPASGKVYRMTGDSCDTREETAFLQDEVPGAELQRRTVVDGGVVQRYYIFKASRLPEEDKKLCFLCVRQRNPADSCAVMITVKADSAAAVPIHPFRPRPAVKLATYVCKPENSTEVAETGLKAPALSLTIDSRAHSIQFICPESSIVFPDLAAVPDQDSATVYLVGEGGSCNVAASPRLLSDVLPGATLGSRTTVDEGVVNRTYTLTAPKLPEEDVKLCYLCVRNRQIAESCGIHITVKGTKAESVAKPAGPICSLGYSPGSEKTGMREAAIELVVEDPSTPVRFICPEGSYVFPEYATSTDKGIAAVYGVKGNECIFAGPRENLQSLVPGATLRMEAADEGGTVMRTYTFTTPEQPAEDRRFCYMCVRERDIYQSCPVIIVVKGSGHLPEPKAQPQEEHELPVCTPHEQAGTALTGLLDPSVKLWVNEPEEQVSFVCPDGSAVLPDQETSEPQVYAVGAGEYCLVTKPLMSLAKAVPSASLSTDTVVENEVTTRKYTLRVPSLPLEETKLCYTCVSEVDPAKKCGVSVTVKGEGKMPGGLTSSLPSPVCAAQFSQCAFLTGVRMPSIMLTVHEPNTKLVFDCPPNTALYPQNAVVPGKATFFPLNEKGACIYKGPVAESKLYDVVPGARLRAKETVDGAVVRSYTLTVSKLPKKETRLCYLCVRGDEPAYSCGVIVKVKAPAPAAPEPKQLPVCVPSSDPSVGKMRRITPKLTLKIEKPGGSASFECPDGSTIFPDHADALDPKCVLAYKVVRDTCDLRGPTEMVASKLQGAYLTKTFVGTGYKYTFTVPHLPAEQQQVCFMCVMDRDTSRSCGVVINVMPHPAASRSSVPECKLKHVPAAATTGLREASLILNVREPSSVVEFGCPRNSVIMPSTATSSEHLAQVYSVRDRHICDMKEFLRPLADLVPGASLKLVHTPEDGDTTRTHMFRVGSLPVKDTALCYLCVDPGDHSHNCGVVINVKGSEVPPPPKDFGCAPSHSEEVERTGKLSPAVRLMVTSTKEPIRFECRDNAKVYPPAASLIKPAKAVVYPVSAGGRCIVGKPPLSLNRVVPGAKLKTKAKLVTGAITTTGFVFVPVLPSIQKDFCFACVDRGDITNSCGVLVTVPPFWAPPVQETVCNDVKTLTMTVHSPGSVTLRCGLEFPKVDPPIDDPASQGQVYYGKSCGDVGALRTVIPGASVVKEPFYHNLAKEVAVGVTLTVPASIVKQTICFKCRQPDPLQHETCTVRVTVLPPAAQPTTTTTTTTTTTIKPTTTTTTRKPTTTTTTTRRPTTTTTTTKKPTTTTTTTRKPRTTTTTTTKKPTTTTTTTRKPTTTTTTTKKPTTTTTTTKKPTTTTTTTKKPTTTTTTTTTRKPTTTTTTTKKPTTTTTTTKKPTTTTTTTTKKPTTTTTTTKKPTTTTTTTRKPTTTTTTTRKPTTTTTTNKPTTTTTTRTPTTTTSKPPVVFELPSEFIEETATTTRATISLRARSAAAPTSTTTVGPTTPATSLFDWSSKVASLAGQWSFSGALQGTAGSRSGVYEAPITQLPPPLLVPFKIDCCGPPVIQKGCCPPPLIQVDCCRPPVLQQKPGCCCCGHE

T1: HAmyc-tagged full-length GCN5b (Toxoplasma gondii) (UniProt S8F3V2)
T1 sequence: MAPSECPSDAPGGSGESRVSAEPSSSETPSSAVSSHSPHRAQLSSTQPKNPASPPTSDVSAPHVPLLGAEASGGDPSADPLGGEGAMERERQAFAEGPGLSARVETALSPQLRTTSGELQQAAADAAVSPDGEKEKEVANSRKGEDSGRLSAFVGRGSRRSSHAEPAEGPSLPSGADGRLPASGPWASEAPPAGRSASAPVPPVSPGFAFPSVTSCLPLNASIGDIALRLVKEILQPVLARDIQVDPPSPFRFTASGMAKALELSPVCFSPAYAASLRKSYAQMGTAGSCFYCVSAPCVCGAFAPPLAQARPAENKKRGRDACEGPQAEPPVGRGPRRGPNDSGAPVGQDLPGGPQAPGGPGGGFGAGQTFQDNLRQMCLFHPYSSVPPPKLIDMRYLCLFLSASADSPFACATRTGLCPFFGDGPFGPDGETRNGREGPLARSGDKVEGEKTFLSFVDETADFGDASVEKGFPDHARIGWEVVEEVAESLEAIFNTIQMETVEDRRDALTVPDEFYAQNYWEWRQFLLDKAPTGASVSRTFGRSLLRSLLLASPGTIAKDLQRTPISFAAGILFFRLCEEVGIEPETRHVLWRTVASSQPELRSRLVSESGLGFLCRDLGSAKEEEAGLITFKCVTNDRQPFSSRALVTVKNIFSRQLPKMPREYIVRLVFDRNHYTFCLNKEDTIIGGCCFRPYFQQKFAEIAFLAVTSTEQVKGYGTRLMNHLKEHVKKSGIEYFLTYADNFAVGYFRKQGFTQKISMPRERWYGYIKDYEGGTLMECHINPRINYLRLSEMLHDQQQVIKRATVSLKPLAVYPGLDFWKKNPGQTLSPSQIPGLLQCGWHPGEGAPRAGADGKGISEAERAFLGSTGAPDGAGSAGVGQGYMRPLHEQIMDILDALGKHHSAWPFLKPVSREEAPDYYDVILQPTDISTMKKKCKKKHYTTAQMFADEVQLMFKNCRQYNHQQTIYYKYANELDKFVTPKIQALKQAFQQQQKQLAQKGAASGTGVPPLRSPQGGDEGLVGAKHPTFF


Tests used:
Test in all cases: affinity purification with mass spectrometry; anti-HA magnetic beads on nuclear extracts of intracellular tachyzoites, overnight at 4°C; washes with 150 mM NaCl, 1% NP-40, 0.5% sodium deoxycholate, 0.1% SDS, 50 mM Tris-HCl pH 8.0; SDS-PAGE, LC-MS/MS; parental lines as negative controls
[1] = biological target: T1, HAmyc-tagged full-length GCN5b (Toxoplasma gondii)
[2] = biological target: AP2IX-7 endogenously tagged with a C-terminal 3xHA tag (Toxoplasma gondii (endogenous locus tagged in RHΔku80))
[3] = biological target: T1, HAmyc-tagged full-length GCN5b (Toxoplasma gondii); remark: listed apart in the source
[4] = biological target: AP2X-8 endogenously tagged with a C-terminal 3xHA tag (Toxoplasma gondii (endogenous locus tagged in RHΔku80))

Molecule	binding [1]	also measured
ADA2-A transcriptional co-activator	binds	
AP2IX-7 (endogenous, untagged)	binds	
AP2X-5 (endogenous, untagged)	no binding	
AP2X-8 (endogenous, untagged)	binds	
AP2XI-2 (from UniProt A0A125YJB8)	binds	
AP2XII-4 (from UniProt A0A125YU40)	binds	
AT-hook protein (TGME49_109250)	binds	
CTR9	binds	
MyoF	binds	
RRM protein (TGME49_062620)	binds	
RRM protein (TGME49_105850)	binds	
SPT6 transcription elongation factor SPT6 (from UniProt S8ESH5)	binds	
SRS44 (from UniProt S8EZL1 1-2451)	binds	
SWI/SNF ATPase (TGME49_078440)	binds	
SWI/SNF ATPase (TGME49_120300)	binds	
TAF1/TAF250	binds	
protein transport protein Sec61 alpha subunit isoform 1	binds	
sec63 domain-containing DEAD/DEAH box helicase	binds	
splicing factor 3B subunit 3	binds	
TAF5 transcription initiation factor TFIID subunit 5 (protein, UniProt S8FCN0 1-1094) MTEGRPVSVSFPLTASQQTRETVRPMGEPPPSDSSNSSVGDASKPLSSPSSSSASSSASLSSSSSSSLSSSSSSSSVSPVDPRGLGASAAAVVPSTSSASEKLSEIFHLLQQKYHVDSRMLDSLQEAISSFKSGPSLSSSLASSSSPRPEQTQAAAPARAAPSAEEAAVVALGTLGGRLSGQGASPLALPGSNALLSFDVYERIYNRFCIWILSLFEDCREELMDVAFAVLLHMFRKLLTVDAYQAHQLLRRFSPLHAGKHGSLLKQLEDAEPVHPLQLCQIPYFASEERNPLYISERAYFLLRTWLVDTRCLLLEVMIQAASRLLPPPSHAPHARGLVYRGLLGPSLSQSLLSPPSSHPLSSLPAGLRRHEETPAPTTQEKAVAQRAGDLAFFDAPPPFRSQPGDPEKGEKSDEREEDRSALDNSGELPPVVWGLPRQFFREETTVIGPSGERTKRVRLLGGENLRETELAEPNSLLPLPEPPKDSFLLYRRLIKQQTERRAPLSAAAGQWPSIACMTVLNSSSESACCAVSPSTCRLVAVGGEGEIRLWDLQQYQVTKARRERQRRRWLLRTQQMAQEGQPLSSFLSASKPAADDEDGEASGSEKDDAPEEKKSSSGKSLHRRKNAASAAPLALDWGEDTAGEAGVSCLVGTDGRVLSLAFGEMDDRILLSGGTDGVVRLWPSYPSAAWASTLLDEDEGEALEEKGEERQLKKAPGTGESGAQESAEGEGEQAPRSVSRGLPGSRSSVVSPLCVYRGALAAVWALDVGPYGHYFASGSSDNCARLWCTSRSFPLRLLQHPAAATDVFHVAFHPNSSLLLTAASDNCVRLFDLRSAQLARAWAPLLLPVVDGEARGRATEEPEEGDGEQRDRQERRERRGTDRKVEKHDSSPFMRRKRVYEDVKKPGAKHLRLGKKRGSPVFRASDDEEEEKRQAERRRSGRVTALAMSPNGRLAAVGDSAGGVCVFDIPSGRPLAIGSSPSMQKREERFSPLHFPPSIASLSFCHGSSFLASAAVDGTVALWDTSGGALQIPEADGTFRQKSGLFAGRPVTALSLAETYGASHVAFRSCLFSPENLLFCLGFSTLCSDEDFL		binding [2]: binds; binding [3]: binds; binding [4]: binds
GCN5b (endogenous) (enzyme, UniProt S8F3V2 1-1032) MAPSECPSDAPGGSGESRVSAEPSSSETPSSAVSSHSPHRAQLSSTQPKNPASPPTSDVSAPHVPLLGAEASGGDPSADPLGGEGAMERERQAFAEGPGLSARVETALSPQLRTTSGELQQAAADAAVSPDGEKEKEVANSRKGEDSGRLSAFVGRGSRRSSHAEPAEGPSLPSGADGRLPASGPWASEAPPAGRSASAPVPPVSPGFAFPSVTSCLPLNASIGDIALRLVKEILQPVLARDIQVDPPSPFRFTASGMAKALELSPVCFSPAYAASLRKSYAQMGTAGSCFYCVSAPCVCGAFAPPLAQARPAENKKRGRDACEGPQAEPPVGRGPRRGPNDSGAPVGQDLPGGPQAPGGPGGGFGAGQTFQDNLRQMCLFHPYSSVPPPKLIDMRYLCLFLSASADSPFACATRTGLCPFFGDGPFGPDGETRNGREGPLARSGDKVEGEKTFLSFVDETADFGDASVEKGFPDHARIGWEVVEEVAESLEAIFNTIQMETVEDRRDALTVPDEFYAQNYWEWRQFLLDKAPTGASVSRTFGRSLLRSLLLASPGTIAKDLQRTPISFAAGILFFRLCEEVGIEPETRHVLWRTVASSQPELRSRLVSESGLGFLCRDLGSAKEEEAGLITFKCVTNDRQPFSSRALVTVKNIFSRQLPKMPREYIVRLVFDRNHYTFCLNKEDTIIGGCCFRPYFQQKFAEIAFLAVTSTEQVKGYGTRLMNHLKEHVKKSGIEYFLTYADNFAVGYFRKQGFTQKISMPRERWYGYIKDYEGGTLMECHINPRINYLRLSEMLHDQQQVIKRATVSLKPLAVYPGLDFWKKNPGQTLSPSQIPGLLQCGWHPGEGAPRAGADGKGISEAERAFLGSTGAPDGAGSAGVGQGYMRPLHEQIMDILDALGKHHSAWPFLKPVSREEAPDYYDVILQPTDISTMKKKCKKKHYTTAQMFADEVQLMFKNCRQYNHQQTIYYKYANELDKFVTPKIQALKQAFQQQQKQLAQKGAASGTGVPPLRSPQGGDEGLVGAKHPTFF		binding [2]: binds; binding [4]: binds
LEO1 Paf1/RNA polymerase II complex component LEO1 (protein, UniProt S8ETE7 1-377) MEEAAHASPEVLDGGAWPAVAEHTGEEEATSDDSPQTQRRPEAQDLEPEAVEAEDDLFGEGRDEDLFGEEDDELEVSRQKARDALSPTDPTADAQPDDAAAKGEEALAREEEAFSRFDEEGRRHSDDEEPCEDDQEIQLPIQELPPSTKDARLVVLRLPPTVSVKVRGAPANSRPHSSSSAAISADDKFTIEWGHPGGKKDGEHEAAEDKVPASNCKLVEWGDGSYSLFVGRQMFDVQVKRDPTLFFENSSSETIKTLHCRAESRFQVRLGELLNFREFFTQRNMRHGKKRRAALTTQEQIERAEQLTRKTVERRHEAARTRRRQADSARGLERGLTRHFLEADSEEELEAKQDEEEEDGSSLAKIKEQYKRQKRFK		binding [2]: binds; binding [3]: binds; binding [4]: binds
RTF1 (protein, UniProt S8FA68 1-783) MKSAARGRQAQQRGRPSSGSRVSAEDEGKRHSSSSRETGGDAAWRRGKPGDRNGEFSPDLLYKDERDREALESMNEFEREAELARRYEELVRERQRKELLRRQDQDRKSKAGRLGDALSDIRARRARQKQQQRQTSEDEDEEEGEVSGSRKDGTEDMTESSSEDEEDEEEKKRLASPPVGAGGPGASSGVSAAADAAVGSGASAAPLSPDRGEGAGTADGVALGVGSASAGDASVENEALGRRKVSTAKSAREDEGGEPTTQQQRPVEDDRRGDLFDEDRVDSDEQRRKETARRMLQRISLELLNGVRLSTERLLHMLEHPQAEKFVRGCFVKVPQPAAAASKSPSPESPPVAWVCQIVGLRPCAPYFVPKASGTLAESAGLGAESRRGSVPCAVKLLLRVAPKASAKFDREFSLAELLNSPVTPAEYEGWKKKLQEFDSVEDLSKKLRAKLQQLKEFTFTDEDVQAILSKKQDSGAGSFLMTTGTLLKQLMSIKHEMDSLHASLSSVSTASAARRELKEKLQVLVARKAEVEAKLAKSKAAAGRARNSSTIHQVSVERRREKLSKFILNDPKRSMRKGVGREPSKASPPAATAAALTCADLLFGDGEEDAGRRKRCREGSDEVGRDRSHGGGDSRSAENRLSPFDDTRAASASPAFPSGGRDASSPRLGGESEHRSASPSSSQPRGVAGPLSSGTPQATAAWKFLLHGAPKEQRVWVKHTVQKYREGGPLNIDTANIPPPRPYASVVALLPPTPPPPSDSLLISLEEYKQQVAQLANMQLAG		binding [3]: binds
